# Assay results from patent publication US20050079604A1, “Method for improving functionality of tissue constructs” (priority 2001, published 2005).
# At least one compound was matched to its structure with a doubt left.
# Tests used:
# [1] = system: reconstructed human vascular media (RHVM); test: Contraction of RHVM rings in response to cumulative doses of histamine (myograph, isometric tension); type: cell-based; settings: 21 days of maturation, FIG. 9
# Protocol: (§1) Reconstructed human vascular media (RHVM) were prepared for the control tissue construct (not aligned) as described in Example I. The RHVM used for this example were treated as follow: RHVM cultured in medium described above represent the control condition (non-treated RHVM) and RHVM supplemented with cell proliferation inhibitors, heparin or olomoucine (treated RHVM).
# To assess the contractile function of RHVM which were treated or not (control condition), RHVM rings of 5-7 mm in length were removed from the tubular support used for culture after 21 days of maturation. Rings were mounted in a myograph and challenged in the presence of cumulative doses of histamine, a vasoactive agent. Isometric tension generated by RHVM contraction was directly recorded via a force transducer (Kilster-Morse, DSG BE4).
# [2] = system: smooth muscle cells present in reconstructed human vascular media; test: Immunolabeled differentiation markers of smooth muscle cells in RHVM; type: cell-based; settings: FIG. 10
# Protocol: as §1
smiles,measurement,setting,value
Cn1cnc2c(NCc3ccccc3)nc(NCCO)nc21 [olomoucine],contraction of RHVM cultured with the cell proliferation inhibitor vs control RHVM,"[1]; higher doses of histamine, 10^−5 and 10^−4 M",significantly greater contraction
same,contraction of RHVM cultured with the cell proliferation inhibitor vs non-treated RHVM,[1]; low dose of histamine (10^−6 M),no significant difference of contraction
same,expression of differentiation markers in cells cultured with the inhibitor vs without,[2],increased
